# Results are given in words; binding and its absence hold for the method and conditions named. Tags and fused reporters may be left off the sequences shown.
# B1: intron debranching enzyme (Dbr1) from Entamoeba histolytica (enzyme, UniProt C4M1P9 1-354)
# chain: MATEQIQHIAIVGCVHGKYREMYRQLSEYEKSTGKEISFVICTGDMQTLRYEADLVYLKVPPKYKQMGDFHLYYEGKEKAPYLTLFIGGNHESSNVLLHLYNGGFVCFNMYYLGVCSCININGLRIVGVSGIYKSFDEKKPYTYPPSPNDVVSLFHTRNYVIQMLSNLSQSSQIDISLSHDWPQGIVMKGNYKQLYRFQPGFKKDGASLGSPINKVILNTLKPKYWISGHMHCEYHAEEGPTHFIALGKIGYKNAISYLDLPLKQKTDLEYDKDWVCNLIMTWPAFSNKAQFPDLSYSISELLSKRTKELDKKIIELWEKYIGLKIIYDSDTFDIQFTSRRFYIEKIYNELNIN
# Target: intron debranching enzyme (Dbr1) from Entamoeba histolytica (Entamoeba histolytica) (UniProt C4M1P9)
# Assay: AUC; sedimentation velocity; Dbr1 at 0.3 mg/ml, 40 000 rpm, 20°C, 20 mM HEPES pH 7.4, 100 mM NaCl; van Holde-Weischet, 2D spectrum and genetic algorithm analyses (ULTRASCAN); both purified
binder,measurement,value
B1,binding,no binding (tested: 0.3 mg/ml)
